{"source": "the supplement of paper PMC10727501", "note": "The other results are listed elsewhere or left out. Single values are uncertain here, since repeats match poorly.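 Free-swimming zebrafish larvae were assessed for O-bend response probability to dark flashes (naive: first five; training: remaining flashes across four 60-flash blocks; test: later 60-flash block) and for OMR turning toward alternating leftward/rightward LED motion. Six treated larvae were compared against sixty 0.1% DMSO controls; hits required |SSMD|≥2.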", "data": [{"tested_on": "Danio rerio larvae (5 dpf, TLF)", "test": "Prob-Naive (SSMD vs DMSO vehicle); higher = higher than vehicle (e.g. higher dark-flash O-bend response probability, or better optomotor performance)", "conditions": "10 µM; pre-incubation: 30-90 min", "values": [{"smiles": "CCNC(=O)c1noc(-c2cc(C(C)C)c(O)cc2O)c1-c1ccc(CN2CCOCC2)cc1", "Prob-Naive": -0.214}, {"smiles": "Cc1c(Cn2c(C)nc3c(C(=O)O)cc(N4CCOCC4)cc32)cccc1C(F)(F)F", "Prob-Naive": 0.515}, {"smiles": "Nc1cc(F)ccc1NC(=O)/C=C/c1cnn(C/C=C/c2ccccc2)c1", "Prob-Naive": -0.471}, {"smiles": "C[N+](C)(C)CCO.[Cl-]", "note": "[Choline Chloride]", "Prob-Naive": -0.571}]}, {"tested_on": "Danio rerio larvae (5 dpf, TLF)", "test": "Prob-Train (SSMD vs DMSO vehicle); higher = higher than vehicle (e.g. higher dark-flash O-bend response probability, or better optomotor performance)", "conditions": "10 µM; pre-incubation: 30-90 min", "values": [{"smiles": "CS(=O)(=O)O.Cn1cc(C2=C(c3cn(CCCSC(=N)N)c4ccccc34)C(=O)NC2=O)c2ccccc21", "note": "[Ro 31-8220 Mesylate]", "Prob-Train": 0.393}, {"smiles": "C[C@@H]1CN(c2c(F)c(F)c3c(=O)c(C(=O)O)cn(C4CC4)c3c2F)C[C@@H](C)N1", "note": "[Orbifloxacin]", "Prob-Train": 0.44}, {"smiles": "[C@@H]1(C[C@@]2(N([C@@](C1)(CC2)[H])C)[H])OC(C(C3C=CC=CC=3)O)=O.Br", "note": "(some centres undefined) [Homatropine Bromide]", "Prob-Train": -0.329}, {"smiles": "CCCCc1ncc(/C=C(\\Cc2cccs2)C(=O)O)n1Cc1ccc(C(=O)O)cc1.CS(=O)(=O)O", "note": "[Eprosartan Mesylate]", "Prob-Train": -0.0578}, {"smiles": "CCOC(=O)c1ccc(OC(=O)CCCCCNC(=N)N)cc1.CS(=O)(=O)O", "note": "[Gabexate Mesylate]", "Prob-Train": 0.254}, {"smiles": "O=C(O)c1cc(=O)[nH]c(=O)[nH]1", "note": "[Orotic acid (6-Carboxyuracil)]", "Prob-Train": 0.374}, {"smiles": "Cc1cn([C@@H]2C[C@@H](O)[C@H](CO)O2)c(=O)[nH]c1=O", "note": "[Telbivudine]", "Prob-Train": -0.37}, {"smiles": "C[C@@H]1O[C@@H](OC[C@H]2O[C@@H](Oc3c(-c4ccc(O)c(O)c4)oc4cc(O)cc(O)c4c3=O)[C@@H](O)[C@@H](O)[C@@H]2O)[C@@H](O)[C@H](O)[C@H]1O", "note": "[Rutin]", "Prob-Train": 0.0979}, {"smiles": "CC(C)c1ccc(NC(=O)Cn2cnc3c2c(=O)n(C)c(=O)n3C)cc1", "Prob-Train": 0.516}, {"smiles": "NC(Cc1c[nH]c2ccc(O)cc12)C(=O)O", "note": "(centres undefined) [5-hydroxytryptophan (5-HTP)]", "Prob-Train": -0.162}, {"smiles": "O=C(Nc1cc2cc[nH]c2cn1)c1ccccc1", "Prob-Train": 0.933}, {"smiles": "N#C/C(=C\\c1ccc(O)c(O)c1)C(=O)NCc1ccccc1", "note": "[AG-490 (Tyrphostin B42)]", "Prob-Train": 0.172}, {"smiles": "Cc1ccccc1CN1C2=NCCN2C(=O)C2=C1CCN(Cc1ccccc1)C2", "Prob-Train": -0.186}, {"smiles": "CN(C)CCCNC(=O)c1ccc(-c2cc(O)c3ncccc3c2)cc1", "Prob-Train": 0.443}, {"smiles": "CC(=O)c1c(C)c2cnc(Nc3ccc(N4CCNCC4)cn3)nc2n(C2CCCC2)c1=O.O=S(=O)(O)CCO", "Prob-Train": 0.0376}, {"smiles": "O=C(NOC[C@H](O)CO)c1ccc(F)c(F)c1Nc1ccc(I)cc1F", "Prob-Train": -1.73}, {"smiles": "CC(C)(C#N)c1ccc(N2C(=O)OCc3cnc4ccc(-c5cnc6ccccc6c5)cc4c32)cc1", "Prob-Train": -0.674}, {"smiles": "NC(=O)c1ccc(N(C(N)=O)c2c(F)cccc2F)nc1-c1ccc(F)cc1F", "Prob-Train": -0.674}, {"smiles": "COc1cc(Nc2c(C#N)cnc3cc(OCCCN4CCN(C)CC4)c(OC)cc23)c(Cl)cc1Cl", "note": "[Bosutinib (SKI-606)]", "Prob-Train": 0.214}, {"smiles": "CCC[C@@H]1C[C@@H](C(=O)N[C@@H](C(C)Cl)[C@H]2O[C@@H](SC)[C@H](O)[C@@H](O)[C@H]2O)N(C)C1.Cl", "note": "(some centres undefined) [Clindamycin HCl]", "Prob-Train": -0.103}, {"smiles": "C[C@H]1CCN(C(=O)CC#N)C[C@@H]1N(C)c1ncnc2[nH]ccc12.O=C(O)CC(O)(CC(=O)O)C(=O)O", "Prob-Train": -0.0484}, {"smiles": "CN/C(=C/[N+](=O)[O-])NCCSCc1csc(CN(C)C)n1", "note": "[Nizatidine]", "Prob-Train": -0.0204}, {"smiles": "CC(=O)NCC(=O)O.CC(=O)NCC(=O)O.N=C(N)c1ccc(/N=N/Nc2ccc(C(=N)N)cc2)cc1", "note": "[Diminazene Aceturate]", "Prob-Train": 0.436}, {"smiles": "O=C(c1ccc(F)cc1)C1CCN(CCn2c(=O)[nH]c3ccccc3c2=O)CC1", "note": "[Ketanserin]", "Prob-Train": 0.416}, {"smiles": "Cc1ccc2c(=O)c3cccc(CC(=O)O)c3oc2c1C", "note": "[DMXAA (Vadimezan)]", "Prob-Train": -0.737}, {"smiles": "Cc1ncc([N+](=O)[O-])n1CC(C)O", "note": "(centres undefined) [Secnidazole]", "Prob-Train": 0.22}, {"smiles": "Cl.Cl.Clc1ccc(Nc2nnc(Cc3ccncc3)c3ccccc23)cc1", "note": "[Vatalanib (PTK787) 2HCl]", "Prob-Train": -1.53}, {"smiles": "CC(C)(C)c1ccc(C(O)CCCN2CCC(C(O)(c3ccccc3)c3ccccc3)CC2)cc1", "note": "(centres undefined) [Terfenadine]", "Prob-Train": -0.471}, {"smiles": "CCS(=O)(=O)CCn1c([N+](=O)[O-])cnc1C", "note": "[Tinidazole]", "Prob-Train": 0.132}, {"smiles": "CCOc1ccn(-c2ccc(F)cc2)c(=O)c1C(=O)Nc1ccc(Oc2ccnc(N)c2Cl)c(F)c1", "Prob-Train": 0.248}, {"smiles": "COc1cc2c(cc1OC)[C@@H]1Cc3ccc(OC)c(OC)c3CN1CC2", "note": "[Rotundine]", "Prob-Train": -0.73}, {"smiles": "NS(=O)(=O)Cc1noc2ccccc12", "note": "[Zonisamide]", "Prob-Train": 0.121}, {"smiles": "CNCC(O)c1ccc(O)c(O)c1", "note": "(racemic) [DL-Adrenaline]", "Prob-Train": -0.235}, {"smiles": "Cc1cc(NC(=O)C2=C(O)c3ccccc3S(=O)(=O)N2C)no1", "note": "[Isoxicam]", "Prob-Train": -0.0233}, {"smiles": "Cl.O=C(c1ccc(OCCN2CCCCC2)cc1)c1c(-c2ccc(O)cc2)sc2cc(O)ccc12", "note": "[Raloxifene HCl]", "Prob-Train": -0.395}, {"smiles": "Cc1c(CN2CCN(C(=O)[C@H](C)O)CC2)sc2c(N3CCOCC3)nc(-c3cnc(N)nc3)nc12", "Prob-Train": -0.072}, {"smiles": "CCNC(=O)c1noc(-c2cc(C(C)C)c(O)cc2O)c1-c1ccc(CN2CCOCC2)cc1", "Prob-Train": 0.323}, {"smiles": "Cc1c(Cn2c(C)nc3c(C(=O)O)cc(N4CCOCC4)cc32)cccc1C(F)(F)F", "Prob-Train": 0.565}, {"smiles": "Nc1cc(F)ccc1NC(=O)/C=C/c1cnn(C/C=C/c2ccccc2)c1", "Prob-Train": -0.36}, {"smiles": "C[N+](C)(C)CCO.[Cl-]", "note": "[Choline Chloride]", "Prob-Train": -0.272}]}]}
